Test results: patent US20220259645
The comparison behind a weaker result is the experiment's own reference, which may not be listed here.

By UniProt entry, the sequences of proteins in these tests, tags left out. Where a name states a change or a piece, a line headed by the entry shows the natural chain unless it says otherwise.
UniProt P00573: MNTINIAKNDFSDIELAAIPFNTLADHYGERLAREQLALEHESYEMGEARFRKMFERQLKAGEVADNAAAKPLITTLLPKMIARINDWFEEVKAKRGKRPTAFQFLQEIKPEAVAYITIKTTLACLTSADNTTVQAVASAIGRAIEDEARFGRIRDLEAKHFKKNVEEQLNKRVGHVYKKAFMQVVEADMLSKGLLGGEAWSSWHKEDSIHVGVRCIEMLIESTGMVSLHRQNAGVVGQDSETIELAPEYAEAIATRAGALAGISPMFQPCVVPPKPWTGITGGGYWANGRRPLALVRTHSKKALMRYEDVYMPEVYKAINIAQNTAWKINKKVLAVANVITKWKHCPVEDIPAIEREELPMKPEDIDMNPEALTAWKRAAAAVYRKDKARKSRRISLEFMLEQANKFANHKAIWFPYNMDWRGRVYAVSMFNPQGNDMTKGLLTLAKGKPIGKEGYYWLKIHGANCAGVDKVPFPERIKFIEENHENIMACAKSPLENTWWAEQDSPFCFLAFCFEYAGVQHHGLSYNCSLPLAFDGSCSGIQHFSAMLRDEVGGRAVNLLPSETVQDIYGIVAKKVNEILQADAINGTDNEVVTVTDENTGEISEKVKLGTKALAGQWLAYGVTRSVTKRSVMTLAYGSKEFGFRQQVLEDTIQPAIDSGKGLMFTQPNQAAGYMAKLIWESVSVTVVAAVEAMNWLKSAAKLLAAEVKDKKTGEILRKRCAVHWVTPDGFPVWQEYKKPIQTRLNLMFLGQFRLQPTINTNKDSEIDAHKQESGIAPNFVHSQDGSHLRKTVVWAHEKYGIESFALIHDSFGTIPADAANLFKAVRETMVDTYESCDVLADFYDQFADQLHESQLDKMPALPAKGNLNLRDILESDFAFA

Biological target: T7 RNA polymerase (T7 RNAP) (bacteriophage T7) (UniProt P00573)
Experiment: activity assay
Conditions: purified recombinant protein
[1] = templated propagation at low T7 RNAP

Sequence	activity on this sequence [1]	activity on this sequence (failed to instruct efficient RNA synthesis without 3' extra base)
CCCAAUAUCAUCAAUUGCUGACGAAGAUGAUAUUGAUAAUAUCAUCUUCGUCAGCAAUUGAUGAUAUU [Round 2B RNA species]	active	
CCCCAAAAUUUCAAGAUCAGGGCUUGAAAUUUUGUAAAAUUUCAAGCCCUGAUCUUGAAAUUUUCC [Y2 RNA C strand (RNA species 12.1)]		less active
GGAAAAUCAAUGACUGGUCAAUCUCAUUGAUUUUUGAAAUCAAUGAGAUUGACCAGUCAUUGAUUUU [Round 2C RNA species]	active	
GGAAAAUUUCAAACAUUAUGUUGUAAUUUGUUUGAAAAUUUCAAACAAAUUACAACAUAAUGUUUGAAAUUUUGGGGGGAAAAU [Round 2A RNA species]	active	
